Taken from: PubChem BioAssay AID652272 (Drosophila RNAi Screening Center, 2013)

- Test: 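Genes whose knock-down decreases or increases Hedgehog reporter output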 (primary screen)
- Cell system: Drosophila clone 8 (Cl8) cells
- Knock-down reagent: long dsRNA against Drosophila genes
- Measured: 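Firefly light from a Hedgehog-responsive ptc promoter reporter and Renilla reference light, both read on a plate reader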
- Direction: firefly Hh reporter signal: higher = more ptc reporter light; Renilla reference signal: higher = more Renilla control light
- Hit rule: 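Hit when the z-score averaged over two replicates is under -2 or over +3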
- Meaning of the calls: active = hit: reporter lowered or raised; inactive = not a hit
The deposit covers about 21,000 reagents; shown is a random part of those that have a named target and a result. Of all reagents, 503 (2.4%) were called active. 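Raw plate light values, not normalised; calls rest on replicate z-scores that were not deposited; hits include reporter decreases as well as increases.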 No sequences are given here. Not given: the amount of reagent, the time to read-out.

gene	amplicon	firefly Hh reporter signal, replicate 1	firefly Hh reporter signal, replicate 2	firefly Hh reporter signal, replicate 3	Renilla reference signal, replicate 1	Renilla reference signal, replicate 2	outcome
Osi21	DRSC02408	1.35e5	92324		3651	6944	inactive
nullo	DRSC18807	1.01e5	2.11e5		3171	8076	inactive
CG5246	DRSC15751	78166	87757		2225	5580	inactive
Tdc1	DRSC04942	1.42e5	3.28e5		3665	13885	inactive
CG31275	DRSC16919	97072	1.26e5		3287	3408	inactive
Lamtor4	DRSC08436	75114	59063		1829	3580	inactive
Dci	DRSC08360	5.65e5	1.01e5		4997	4997	inactive
Spn100A	DRSC14596	1.25e5	1.12e5		2854	3105	inactive
CG12983	DRSC11692	1.13e5	87371		4120	2582	inactive
CG42588	DRSC09820	35428	52707	61496	7712	5498	inactive
CG6044	DRSC04522	1.06e5	72749		1666	5825	inactive
CG6664	DRSC10690	78689	99713		3533	4192	inactive
Sk2	DRSC08556	84373	63195		3104	2508	inactive
CCHa1-R	DRSC06456	88560	58284		2423	4023	inactive
CCHa1-R	DRSC06715	86377	43869		2565	3152	inactive
sdt	DRSC17555	4.42e5	1.41e5		25686	3613	inactive
sdt	DRSC17556	5.00e5	1.35e5		32661	3160	inactive
sdt	DRSC17860	97399	4.28e5		3812	13760	inactive
sdt	DRSC17861	1.02e5	3.35e5		3818	11840	inactive
sdt	DRSC18022	1.34e5	4.52e5		4566	14741	inactive
sdt	DRSC18025	60829	91447		2153	3868	inactive
sdt	DRSC18026	41675	2.06e5		1584	7393	inactive
sdt	DRSC18027	86312	1.71e5		3303	6762	inactive
sdt	DRSC18108	1.24e5	3.61e5		4748	13104	inactive
CRAT	DRSC12523	70609	89658		2842	2819	inactive
Phf7	DRSC20692	1.25e5	95171		3168	2272	inactive
exu	DRSC07615	69420	64982		3177	2624	inactive
Grx1	DRSC10727	86468			5381	3126	inactive
CG3939	DRSC18498	1.26e5	1.87e5		4887	6599	inactive
CG14120	DRSC10124	27579	35126	54740	4208	3651	inactive
rno	DRSC08584	1.29e5	65287		3936	4085	inactive
CG7335	DRSC10816	79760	1.57e5		2710	4199	inactive
ana	DRSC07579	1.57e5	84930		5377	2673	inactive
Scsalpha2	DRSC16003	1.07e5	98491		3947	3720	inactive
CG31176	DRSC15038	9.09e5	1.59e5		41561	3122	inactive
CG31176	DRSC16021	5.50e5	1.54e5		28644	2277	inactive
Npc2g	DRSC14296	1.12e5	1.46e5		3747	8756	inactive
CG33235	DRSC19641	1.04e5	3.67e5		3474	13632	inactive
Tpr2	DRSC03461	1.10e5	92724		4436	3850	inactive
CG7763	DRSC07043	69088	74227		1952	5136	inactive
CG6230	DRSC01989	66716	45763		3056	2109	inactive
msi	DRSC17003	4.62e5	89517		25904	2853	inactive
Alp11	DRSC20080	55497	1.93e5		2032	8602	inactive
CG10631	DRSC02081	1.14e5	79351		4480	3664	inactive
CG32572	DRSC19525	76900	1.83e5		2070	8070	inactive
CG32572	DRSC19526	63324	1.74e5		1241	7932	inactive
Ing5	DRSC03188	1.21e5	79029		4169	2304	inactive
Pex5	DRSC18552	58241	1.54e5		2727	7808	inactive
Ino80	DRSC14760	6.18e5	93061		27440	1891	inactive
Ino80	DRSC15333	6.02e5	66092		23541	1240	inactive
Ino80	DRSC15501	5.47e5	92098		25220	1720	inactive
UGP	DRSC10411	1.41e5	85515		5961	3609	inactive
CG5447	DRSC15801	7.37e5	1.28e5		35315	466	inactive
drd	DRSC19343	87490	2.16e5		3248	8487	inactive
CG14024	DRSC00868	7.39e5	1.48e5		36712	7315	inactive
CG14024	DRSC02354	61436	47700		2769	2200	inactive
nec	DRSC06769	99721	46596		2323	3778	inactive

8 entries from above in another layout.
sdt [DRSC17860]
- firefly Hh reporter signal, replicate 1: 97399
- firefly Hh reporter signal, replicate 2: 4.28e5
- Renilla reference signal, replicate 1: 3812
- Renilla reference signal, replicate 2: 13760
- outcome: inactive

sdt [DRSC17861]
- firefly Hh reporter signal, replicate 1: 1.02e5
- firefly Hh reporter signal, replicate 2: 3.35e5
- Renilla reference signal, replicate 1: 3818
- Renilla reference signal, replicate 2: 11840
- outcome: inactive

sdt [DRSC18022]
- firefly Hh reporter signal, replicate 1: 1.34e5
- firefly Hh reporter signal, replicate 2: 4.52e5
- Renilla reference signal, replicate 1: 4566
- Renilla reference signal, replicate 2: 14741
- outcome: inactive

sdt [DRSC18025]
- firefly Hh reporter signal, replicate 1: 60829
- firefly Hh reporter signal, replicate 2: 91447
- Renilla reference signal, replicate 1: 2153
- Renilla reference signal, replicate 2: 3868
- outcome: inactive

sdt [DRSC18026]
- firefly Hh reporter signal, replicate 1: 41675
- firefly Hh reporter signal, replicate 2: 2.06e5
- Renilla reference signal, replicate 1: 1584
- Renilla reference signal, replicate 2: 7393
- outcome: inactive

sdt [DRSC18027]
- firefly Hh reporter signal, replicate 1: 86312
- firefly Hh reporter signal, replicate 2: 1.71e5
- Renilla reference signal, replicate 1: 3303
- Renilla reference signal, replicate 2: 6762
- outcome: inactive

sdt [DRSC18108]
- firefly Hh reporter signal, replicate 1: 1.24e5
- firefly Hh reporter signal, replicate 2: 3.61e5
- Renilla reference signal, replicate 1: 4748
- Renilla reference signal, replicate 2: 13104
- outcome: inactive

CRAT [DRSC12523]
- firefly Hh reporter signal, replicate 1: 70609
- firefly Hh reporter signal, replicate 2: 89658
- Renilla reference signal, replicate 1: 2842
- Renilla reference signal, replicate 2: 2819
- outcome: inactive
